Measured values reported in article PMC7521653, “Structural analysis of the LDL receptor–interacting FERM domain in the E3 ubiquitin ligase IDOL reveals an obscured substrate-binding site” (The Journal of Biological Chemistry, 2020).
Results are given in words; binding and its absence hold for the method and conditions named. Blank lines part the entries; values can stand above or below the binder they belong to.

What was measured:
[1] = target: IDOL FERM^278 (residues 1-278) (human) (UniProt Q8WY64); test: SEC-MALS; 100 μl of 100 μM protein on Superdex 200 10/300 in 20 mM MES, pH 6.8, 300 mM NaCl, 1 mM TCEP; both purified
[2] = target: IDOL FERM domain, residues 1-344 (FERM^344) (human) (UniProt Q8WY64); test: as above
[3] = target: IDOL FERM domain, residues 1-344 (FERM^344) (human) (UniProt Q8WY64); test: crystal structure; FERM^344, space group I4(1)22, one molecule in the asymmetric unit; dimer and tetramer made by crystallographic symmetry; both purified
[4] = target: IDOL FERM domain, residues 1-344 (FERM^344) (human) (UniProt Q8WY64); test: SAXS; SEC-coupled SAXS, Superdex 200 Increase 3.2/300 in 20 mM MES, pH 6.8, 300 mM NaCl, 1 mM TCEP; FERM^344 injected at 9.86 mg/ml (255 μM); both purified
[5] = target: IDOL FERM^332 (residues 1-332) (human) (UniProt Q8WY64); test: SEC-MALS; 100 μl of 100 μM protein on Superdex 200 10/300 in 20 mM MES, pH 6.8, 300 mM NaCl, 1 mM TCEP; both purified
[6] = target: IDOL FERM^304 (residues 1-304) (human) (UniProt Q8WY64); test: as above

binding [1]: no binding (tested: 100 μM)
B1: IDOL FERM^278 (residues 1-278) (domain or fragment, UniProt Q8WY64 1-278)
chain: MLCYVTRPDAVLMEVEVEAKANGEDCLNQVCRRLGIIEVDYFGLQFTGSKGESLWLNLRNRISQQMDGLAPYRLKLRVKFFVEPHLILQEQTRHIFFLHIKEALLAGHLLCSPEQAVELSALLAQTKFGDYNQNTAKYNYEELCAKELSSATLNSIVAKHKELEGTSQASAEYQVLQIVSAMENYGIEWHSVRDSEGQKLLIGVGPEGISICKDDFSPINRIAYPVVQMATQSGKNVYLTVTKESGNSIVLLFKMISTRAASGLYRAITETHAFYRCD

binding [2]: no binding (tested: 100 μM)
binding [3]: no binding
binding [4]: no binding (tested: 255 μM)
B2: IDOL FERM domain, residues 1-344 (FERM^344) (domain or fragment, UniProt Q8WY64 1-344)
chain: MLCYVTRPDAVLMEVEVEAKANGEDCLNQVCRRLGIIEVDYFGLQFTGSKGESLWLNLRNRISQQMDGLAPYRLKLRVKFFVEPHLILQEQTRHIFFLHIKEALLAGHLLCSPEQAVELSALLAQTKFGDYNQNTAKYNYEELCAKELSSATLNSIVAKHKELEGTSQASAEYQVLQIVSAMENYGIEWHSVRDSEGQKLLIGVGPEGISICKDDFSPINRIAYPVVQMATQSGKNVYLTVTKESGNSIVLLFKMISTRAASGLYRAITETHAFYRCDTVTSAVMMQYSRDLKGHLASLFLNENINLGKKYVFDIKRTSKEVYDHARRALYNAGVVDLVSRNNQ

binding [5]: no binding (tested: 100 μM)
B3: IDOL FERM^332 (residues 1-332) (domain or fragment, UniProt Q8WY64 1-332)
chain: MLCYVTRPDAVLMEVEVEAKANGEDCLNQVCRRLGIIEVDYFGLQFTGSKGESLWLNLRNRISQQMDGLAPYRLKLRVKFFVEPHLILQEQTRHIFFLHIKEALLAGHLLCSPEQAVELSALLAQTKFGDYNQNTAKYNYEELCAKELSSATLNSIVAKHKELEGTSQASAEYQVLQIVSAMENYGIEWHSVRDSEGQKLLIGVGPEGISICKDDFSPINRIAYPVVQMATQSGKNVYLTVTKESGNSIVLLFKMISTRAASGLYRAITETHAFYRCDTVTSAVMMQYSRDLKGHLASLFLNENINLGKKYVFDIKRTSKEVYDHARRALYN

binding [6]: no binding (tested: 100 μM)
B4: IDOL FERM^304 (residues 1-304) (domain or fragment, UniProt Q8WY64 1-304)
chain: MLCYVTRPDAVLMEVEVEAKANGEDCLNQVCRRLGIIEVDYFGLQFTGSKGESLWLNLRNRISQQMDGLAPYRLKLRVKFFVEPHLILQEQTRHIFFLHIKEALLAGHLLCSPEQAVELSALLAQTKFGDYNQNTAKYNYEELCAKELSSATLNSIVAKHKELEGTSQASAEYQVLQIVSAMENYGIEWHSVRDSEGQKLLIGVGPEGISICKDDFSPINRIAYPVVQMATQSGKNVYLTVTKESGNSIVLLFKMISTRAASGLYRAITETHAFYRCDTVTSAVMMQYSRDLKGHLASLFLNEN
